Data published in paper PMC6286318, “Structure-function-guided exploration of the antimicrobial peptide polybia-CP identifies activity determinants and generates synthetic therapeutic candidates” (Communications Biology, 2018).

Each substance was assayed on human red blood cells (assay: Hemolytic activity assay). Conditions: HC50 on human erythrocytes divided by average MIC of twelve strains.
Type: cell-based

Compared with “ILGTILGLFKSL-NH2 [Peptide 17, [Phe]^9-Pol-CP-NH2]”, “ILGTILGLLKSL-NH2 [WT, Pol-CP-NH2, reference compound]” is higher in “Selectivity index SI = HC50/MIC average” value: 2.5 for the first, 3.1 for the second.

“ILGTILKLLKSL-NH2 [Peptide 16, [Lys]^7-Pol-CP-NH2]” was tested, and the “Selectivity index SI = HC50/MIC average” value was 9.2.

No end group written: not given here.
